PubChem BioAssay AID504327 (National Center for Advancing Translational Sciences (NCATS), 2011)
Out of some 390,000 compounds screened, about 820 (0.21%) were called active. This list was built around the results that the source calls inconclusive (neither active nor inactive); the mix of calls is not that of the screen. Calls follow the shape of the dose curve; as a rule, active = well fitted inhibition curve with a large enough effect; inconclusive = small, poorly fitted or top-dose-only effect, or another doubt; inactive = no such curve, though single readings can be large or run the other way. Potencies beside an inconclusive call are fits to weak or partial responses and may not hold up.

Chains of the proteins cited; added tags and fusions are not shown.
UniProt Q92830, whole entry, looked up: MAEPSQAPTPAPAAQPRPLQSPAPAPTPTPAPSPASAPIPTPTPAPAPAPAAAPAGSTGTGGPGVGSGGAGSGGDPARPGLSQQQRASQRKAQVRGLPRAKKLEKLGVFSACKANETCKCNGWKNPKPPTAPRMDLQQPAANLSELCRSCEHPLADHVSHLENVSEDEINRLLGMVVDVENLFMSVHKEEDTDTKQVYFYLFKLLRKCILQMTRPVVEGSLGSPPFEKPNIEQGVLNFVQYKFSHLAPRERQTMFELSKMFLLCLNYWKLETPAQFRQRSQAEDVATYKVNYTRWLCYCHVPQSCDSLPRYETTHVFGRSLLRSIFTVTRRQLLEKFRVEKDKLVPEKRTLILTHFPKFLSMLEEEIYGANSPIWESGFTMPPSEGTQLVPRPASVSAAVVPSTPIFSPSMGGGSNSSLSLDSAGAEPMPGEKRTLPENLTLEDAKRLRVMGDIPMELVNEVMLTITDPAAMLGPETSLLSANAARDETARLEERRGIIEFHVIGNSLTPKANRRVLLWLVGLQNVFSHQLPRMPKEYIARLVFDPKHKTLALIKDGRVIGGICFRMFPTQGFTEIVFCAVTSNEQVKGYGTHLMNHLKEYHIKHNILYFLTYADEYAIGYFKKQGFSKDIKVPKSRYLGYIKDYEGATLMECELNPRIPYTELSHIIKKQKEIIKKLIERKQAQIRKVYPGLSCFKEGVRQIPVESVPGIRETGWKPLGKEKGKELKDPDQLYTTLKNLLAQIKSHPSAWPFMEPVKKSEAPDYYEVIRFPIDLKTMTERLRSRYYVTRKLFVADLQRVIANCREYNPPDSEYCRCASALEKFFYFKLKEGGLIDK

molecular target: Histone acetyltransferase KAT2A (Homo sapiens) (UniProt Q92830); test: qHTS Assay for Inhibitors of GCN5L2; conditions: GCN5L2 HAT assay, ThioGlo1 CoA-SH fluorescence; activity change, negative = inhibition: at 58.9 µM (top of the series) unless noted
Outline: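 Compounds, pin-transferred from DMSO stocks, meet 20nM GCN5L2 for 15 min before the reaction begins with H3(1-25) peptide (75uM) and acetyl-CoA (70uM). Thiol-reactive ThioGlo1 reports CoA release over 20 min at room temperature.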
% is scaled to controls: 0 for no effect and ±100 for the full control effect; potency is read from the fitted curve at half-maximal effect.

| SMILES | Potency | activity change, negative = inhibition |
| --- | --- | --- |
| Cc1ccc(C(=O)NNC(=O)c2ccc(S(=O)(=O)N3CCCCC3)cc2)cc1 | inconclusive: 35.5 µM [inhibitor, single point] |  |
| C/C(=N\O)C(=O)Nc1ccccc1 | inconclusive: 7.08 µM [inhibitor, single point] |  |
| NC(=O)c1ccc(NC(=O)CSc2nnc(-c3ccncc3)n2Cc2ccco2)cc1 | inconclusive: 7.08 µM [inhibitor, single point] |  |
| Cc1cc(=O)oc2c(O)c(O)ccc12 | inconclusive: 28.2 µM [inhibitor, partial curve] |  |
| COC(=O)c1ccccc1OCC(=O)N1CCN(c2ccc(Cl)cc2)CC1 | inconclusive: 0.794 µM [inhibitor, single point] |  |
| O=C1CS/C(=N/N=C/c2ccccc2)N1Cc1ccco1 | inconclusive: 3.55 µM [inhibitor, single point] |  |
| COc1cccc(CN2CCNC(=O)C2CC(=O)NCCCC2CCCC2)c1OC (stereo not given) | inconclusive: 5.62 µM [inhibitor, full curve, poor fit] |  |
| O=C(Cc1ccc(Br)cc1)OCC(=O)c1ccc2c(c1)OCCO2 | inconclusive: 22.4 µM [inhibitor, single point] |  |
| CCOc1ccc2c(c1)C(=O)c1cc(OCC(=O)O)ccc1-2 | inconclusive: 1.78 µM [inhibitor, partial curve, poor fit] |  |
| Clc1cc(NCc2ccccc2)ncn1 |  | inactive: 2.93% |
| COc1ccccc1CNC(=O)[C@H](C)NC(=O)C1CCN(C(=O)[C@@H]2CCCN2C(=O)OC(C)(C)C)CC1 | inconclusive: 25.1 µM [inhibitor, partial curve, poor fit] |  |
| CC1CN(C(=O)CCC(=O)NCc2ccccc2)c2ccccc2O1 (stereo not given) | inconclusive: 39.8 µM [inhibitor, single point] |  |
| c1ccc2nc(C3=NCCN3)ccc2c1 | inconclusive: 35.5 µM [inhibitor, single point] |  |
| Cc1ccccc1Cn1c(CCCNC(=O)C2CCCCC2)nc2ccccc21 |  | inactive: -4.57% |
| FC(F)(F)c1cccc(NC(=S)NNC(=S)Nc2cccc(C(F)(F)F)c2)c1 | inconclusive: 17.8 µM [inhibitor, partial curve, poor fit] |  |
| O=C(NCC12CC3CC(CC(C3)C1)C2)c1cc2n(n1)C(C(F)(F)F)CC(c1ccco1)N2 (stereo not given) | inconclusive: 3.98 µM [inhibitor, single point] |  |
| COc1ccc(S(=O)(=O)N(Cc2nc(-c3cccc(C)c3)no2)C2CCCCC2)cc1 |  | inactive: -12.6% |
| CN(C(=O)c1ccc2nccnc2c1)C1CCCCC1 | inconclusive: 7.08 µM [inhibitor, single point] |  |
| COC(=O)C(OC(=O)c1ccccc1)C(C)Br (stereo not given) | inconclusive: 35.5 µM [inhibitor, single point] |  |
| COC(=O)C1=C(C)NC(=O)C1(NC(=O)c1ccc(Cl)cc1)C(F)(F)F (stereo not given) |  | inactive: 1.12% |
| O=C(Cn1c(=O)oc2cc(S(=O)(=O)N3CCCC3)ccc21)NCc1ccc(Cl)cc1 | inconclusive: 39.8 µM [inhibitor, single point] |  |
| O=C(c1cnccn1)N1CCC2(CC1)CCN(c1ccccc1)CC2 |  | inactive: -2.36% |
| COc1ccc(OC)c(NC(=O)NNC(=O)COc2ccc([N+](=O)[O-])cc2)c1 | inconclusive: 0.141 µM [inhibitor, full curve, poor fit] |  |
| Cn1c(Cn2c(=O)sc3ccccc32)nnc1SCC(=O)NC1CCCC1 |  | inactive: -1.96% |
| COc1ccc(Cl)cc1Nc1nc(N)c2ccccc2n1 |  | inactive: -5.38% |

| SMILES | Potency | activity change, negative = inhibition |
| --- | --- | --- |
| C/C=C/c1ccc(OCC(=O)OCC)c(OC)c1 |  | inactive: -6.77% |
| Cc1ccc(-n2nnnc2SCC(=O)NNC(=O)c2ccc([N+](=O)[O-])cc2)cc1 | inconclusive: 15.8 µM [inhibitor, partial curve] |  |
| CCN1CCN(C(=S)c2ccc(SC)cc2)CC1 |  | inactive: -4.47% |
| COc1ccc(-c2nc3ccccc3o2)cc1NC(=O)C(C)(C)Oc1ccc(Br)cc1 |  | inactive: -4.53% |
| N#CC1=C(N)Oc2cc(O)ccc2C1c1ccc(Br)s1 (stereo not given) |  | inactive: 1.61% |
| C/C=C/C=N/Nc1nc(C)cc(=O)[nH]1 |  | inactive: -2.13% |
| COc1ccc(C(C)=O)cc1CSc1nnc(Nc2ccc(C)cc2)s1 |  | inactive: -7.39% |
| S=c1[nH]nc2c3c4c(sc3ncn12)CCCC4 | inconclusive: 35.5 µM [inhibitor, single point] |  |
| Oc1c(Cl)cc(Cl)cc1C=Nc1cc(C(F)(F)F)ccc1N1CCc2ccccc2C1 |  | inactive: -1.39% |
| CCSc1n[nH]c2nc3c(c(=O)n12)C1(CCCC1)Cc1ccccc1-3 |  | inactive: -3.61% |
| Cc1ccc(C(=O)Nn2c(O)c(C=C3N=c4ccccc4=N3)sc2=S)cc1 |  | inactive: -4.28% |
| COc1cccc(C(=O)Nc2ccc(N(C)C)cc2)c1OC |  | inactive: -9.53% |
| NC(=O)c1ccc(-n2c(CCC(=O)O)ccc2-c2cccs2)cc1 | inconclusive: 25.1 µM [inhibitor, single point] |  |
| O=C(CCN1C(=O)c2ccccc2C1=O)Nc1ccccc1C(F)(F)F | inconclusive: 3.55 µM [inhibitor, single point] |  |
| CC(=O)NC1=NN(C(C)=O)C(c2ccccc2)S1 (stereo not given) |  | inactive: -10.4% |
| Cc1cc(C)cc(-n2c(SCC(=O)NCc3ccc(F)cc3)nc3c([nH]c4ccccc43)c2=O)c1 |  | inactive: -7.35% |
| CCCCNC(=O)Nc1ccc2c(c1)N(C)C(=O)c1ccccc1S2 | inactive |  |
| Cc1c(Cl)c(C(=O)N2CCCc3ccccc32)nn1C | inconclusive: 0.708 µM [inhibitor, single point] |  |
| O=C(CN1CCCCC1)Nc1ccc(C(F)(F)F)cc1Cl | inconclusive: 8.91 µM [inhibitor, single point] |  |
| COc1ccc(NC(=O)Cn2nnc(C(=O)NCc3ccco3)c2N)c(OC)c1 |  | inconclusive: -101% [inhibitor] [at 0.501 µM] |
| CSc1ccc(/C=N/Nc2nc(C)cc(=O)[nH]2)cc1 |  | inactive: -16.1% |
| COc1ccc(OC[C@@H](O)CNC(=O)c2cccc3c2C(=O)c2ccc(-c4ccc(F)cc4OCc4ccccc4)cc2S3(=O)=O)cc1 |  | inactive: -10.7% |
| CCN(CC)C(=O)c1nc[nH]c1C(=O)N(CC)CC |  | inactive: -3.75% |
| COc1ccc2c3c(cccc13)C(=O)CC2 |  | inactive: -28.8% |
| COC(=O)C1=CN(CCCN2CCCC2=O)C=C(C(=O)OC)C1c1cccs1 | inconclusive: 0.141 µM [inhibitor, full curve, poor fit] |  |

| SMILES | Potency | activity change, negative = inhibition |
| --- | --- | --- |
| COc1ccc2c(c1)nc(NCCCO)n2Cc1ccccc1 |  | inactive: 11.3% |
| CN1CCN(S(=O)(=O)c2ccc(-c3noc(C4CCN(S(C)(=O)=O)CC4)n3)cc2)CC1 |  | inactive: -10.3% |
| COc1ccc(C(C)=O)cc1COC(=O)c1c(C)nn(-c2ccccc2)c1C | inconclusive: 3.55 µM [inhibitor, partial curve, poor fit] |  |
| COc1ccc(C(=O)NC(=O)CSc2nnc(-c3ccco3)n2-c2ccccc2)cc1 | inconclusive: 0.891 µM [inhibitor, single point] |  |
| COc1ccc(Cl)cc1NC(=O)Cn1c(=O)n(Cc2ccc(F)cc2)c(=O)c2cccnc21 |  | inactive: 2.9% |
| COc1ccc(CC(=O)OCC(=O)NCc2ccccc2Cl)cc1 | inconclusive: 7.08 µM [inhibitor, single point] |  |
| CC(=O)c1sc2nc(-c3ccc(C)cc3)c3c(c2c1N)CCCC3 | inconclusive: 25.1 µM [inhibitor, single point] |  |
| Cc1cc(C)cc(NC(=O)C(=O)NCC(c2cccnc2)N2CCOCC2)c1 (stereo not given) |  | inactive: -7.66% |
| N#Cc1cnn(-c2ccc(F)cc2)c1N |  | inactive: -1.72% |
| CC(CCC(=O)O)C1CCC2C3CC(O)[C@@H]4CC(O)CC[C@]4(C)C3CC[C@@]12C (stereo not given in full) |  | inactive: -18.6% |
| Cc1cc(C)n2nc(NCc3cccc(Br)c3)nc2n1 | inconclusive: 25.1 µM [inhibitor, single point] |  |
| NC(=O)C1CCN(C(=O)NC(=O)c2ccccc2)CC1 | inconclusive: 0.891 µM [inhibitor, full curve, poor fit] |  |
| COc1ccc(/C=C(\C#N)c2nc3ccc(C)cc3[nH]2)cc1Oc1ccc(C(F)(F)F)cc1[N+](=O)[O-] | active: 2.82 µM |  |
| Cc1ccc2nc(NC(=O)CN3C(=O)NC4(CCCCC4)C3=O)sc2c1 | inconclusive: 1.41 µM [inhibitor, full curve, poor fit] |  |
| O=C(Nc1ncccc1O)c1ccc(S(=O)(=O)Nc2ccccc2)cc1 |  | inactive: 1.25% |
| CC(=O)N1N=C(c2ccccc2OC(=O)/C=C/c2ccccc2)CC1c1ccccc1 (stereo not given) | inconclusive: 39.8 µM [inhibitor, single point] |  |
| Cc1cc(Cl)ccc1OC(C)C(=O)Nc1ccc(C(=O)Nc2ccccc2C(=O)O)cc1 (stereo not given) | inconclusive: 39.8 µM [inhibitor, single point] |  |
| COc1ccc(-c2cc3ncc(C(=O)c4cc([N+](=O)[O-])ccc4O)cn3n2)cc1 | inconclusive: 10 µM [inhibitor, partial curve] |  |
| O=C(Cn1nc(-c2ccco2)ccc1=O)Nc1cc(Cl)ccc1Cl |  | inactive: -1.58% |
| CCOC(=O)N1CCN(C(=O)c2cnc3n(c2=O)CCS3)CC1 | inconclusive: 0.891 µM [inhibitor, single point] |  |
| CN(C)C(=O)CCN1CCOCC1 |  | inactive: -2.95% |
| CCOc1nc(Nc2ccc(F)cc2)nc(N2CCN(c3ccc(OC)cc3)CC2)n1 | inconclusive: 39.8 µM [inhibitor, single point] |  |
| CCOP(=O)(OCC)c1nc(-c2ccc(Cl)cc2Cl)oc1N1CCCCC1 |  | inactive: -22.7% |
| COc1ccc(OCC(=O)NCC(c2cccs2)N2CCOCC2)cc1 (stereo not given) | inconclusive: 0.708 µM [inhibitor, single point] |  |
| O=c1[nH]n2c(=O)c3c([nH]c2c1N=Nc1cccc(C(F)(F)F)c1)CCCC3 | inconclusive: 25.1 µM [inhibitor, single point] |  |

5 compounds picked at random from those above:

| SMILES | Potency | activity change, negative = inhibition |
| --- | --- | --- |
| O=c1[nH]n2c(=O)c3c([nH]c2c1N=Nc1cccc(C(F)(F)F)c1)CCCC3 | inconclusive: 25.1 µM [inhibitor, single point] |  |
| CC(CCC(=O)O)C1CCC2C3CC(O)[C@@H]4CC(O)CC[C@]4(C)C3CC[C@@]12C (stereo not given in full) |  | inactive: -18.6% |
| COc1ccc(OCC(=O)NCC(c2cccs2)N2CCOCC2)cc1 (stereo not given) | inconclusive: 0.708 µM [inhibitor, single point] |  |
| CCOP(=O)(OCC)c1nc(-c2ccc(Cl)cc2Cl)oc1N1CCCCC1 |  | inactive: -22.7% |
| Cc1cc(Cl)ccc1OC(C)C(=O)Nc1ccc(C(=O)Nc2ccccc2C(=O)O)cc1 (stereo not given) | inconclusive: 39.8 µM [inhibitor, single point] |  |
